This is an account of results in the supplement of paper PMC4604168 (melanoma cell lines).

The other results are listed elsewhere or left out. Single values are uncertain, as repeats are few or missing.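 Imaging used 1,536-well plates; nuclei positive for cleaved PARP by antibody were divided by total DNA-stained nuclei to yield the apoptosis fraction. Doses for screening kept most cells viable, and cell lines differ markedly in resting and induced cleaved-PARP levels.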

This assay has as its system G361. Description: cleaved PARP positive nuclei fraction relative to DMSO control; melanoma cells; higher = more apoptosis. Particulars: library dose: low library concentration; 72 h.
Regarding `CO[C@H]1C[C@@H]2CC[C@@H](C)[C@@](O)(O2)C(=O)C(=O)N2CCCC[C@H]2C(=O)O[C@H]([C@H](C)C[C@@H]2CC[C@@H](OCCO)[C@H](OC)C2)CC(=O)[C@H](C)/C=C(\C)[C@@H](O)[C@@H](OC)C(=O)[C@H](C)C[C@H](C)/C=C/C=C/C=C/1C` [everolimus] + O=C(Nc1cccc(Cl)c1)Nc1ncc(CCNc2ncnc3ccsc23)s1 [SNS314] (first compound 0.02 µM, partner dose 0.0008 µM), the “cleaved PARP positive nuclei fraction” value was 146%.

For `O=C(O)c1ccc2c(c1)nc(Nc1cccc(Cl)c1)c1ccncc12` + NC(=O)Nc1cc(-c2cccc(F)c2)sc1C(=O)N[C@H]1CCCNC1 [AZD7762] (first compound 0.4 µM, partner dose 0.02 µM), the “cleaved PARP positive nuclei fraction” value came out at 132%.

Consider `Cn1c(=O)n(-c2ccc(C(C)(C)C#N)cc2)c2c3cc(-c4cnc5ccccc5c4)ccc3ncc21` + O=C(O)c1ccc(-c2c[nH]c3ncc(-c4ccccc4)cc23)cc1C1CCCC1 [GSK650394] (first compound 0.004 µM, partner dose 0.16 µM), for which the “cleaved PARP positive nuclei fraction” value amounted to 97.9%.

Regarding `O=C(O)c1ccc2c(c1)nc(Nc1cccc(Cl)c1)c1ccncc12` + O=C(O)c1ccc(-c2c[nH]c3ncc(-c4ccccc4)cc23)cc1C1CCCC1 [GSK650394] (first compound 0.4 µM, partner dose 0.16 µM), the “cleaved PARP positive nuclei fraction” value was 138%.

Take `CC(C)C[C@H](NC(=O)[C@H](Cc1ccccc1)NC(=O)c1cnccn1)B(O)O` [Bortezomib] + O=C(CCCCCCC(=O)Nc1ccccc1)NO [vorinostat] (first compound 0.001 µM, partner dose 0.08 µM): the “cleaved PARP positive nuclei fraction” value was 1510%.

For `O=C(O)c1ccc2c(c1)nc(Nc1cccc(Cl)c1)c1ccncc12` + O=C(Nc1cccc(Cl)c1)Nc1ncc(CCNc2ncnc3ccsc23)s1 [SNS314] (first compound 0.4 µM, partner dose 0.0008 µM), the “cleaved PARP positive nuclei fraction” value is 120%.

For the compound `Nc1nc(F)nc2c1ncn2[C@@H]1O[C@H](CO)[C@@H](O)[C@@H]1O` [fludarabine] + C=CCn1c(=O)c2cnc(Nc3ccc(N4CCN(C)CC4)cc3)nc2n1-c1cccc(C(C)(C)O)n1 [MK1775] (first compound 0.2 µM, partner dose 0.02 µM), the “cleaved PARP positive nuclei fraction” value was determined as 89.3%.

On to `Nc1ccn([C@@H]2O[C@H](CO)[C@@H](O)C2(F)F)c(=O)n1` [gemcitabine] + COc1cc(Nc2ncc(F)c(Nc3ccc4c(n3)NC(=O)C(C)(C)O4)n2)cc(OC)c1OC [Tamatinib] (first compound 0.0004 µM, partner dose 0.4 µM), for which the “cleaved PARP positive nuclei fraction” value was determined as 112%.

For `Cn1c(=O)n(-c2ccc(C(C)(C)C#N)cc2)c2c3cc(-c4cnc5ccccc5c4)ccc3ncc21` + COc1cc2c(Oc3ccc4[nH]c(C)cc4c3F)ncnc2cc1OCCCN1CCCC1 [cediranib] (first compound 0.004 µM, partner dose 0.4 µM), the “cleaved PARP positive nuclei fraction” value turned out to be 73%.

Consider `Cc1cc(Nc2cc(N3CCN(C)CC3)nc(/C=C/c3ccccc3)n2)n[nH]1` + NC(=O)Nc1cc(-c2cccc(F)c2)sc1C(=O)N[C@H]1CCCNC1 [AZD7762] (first compound 0.04 µM, partner dose 0.02 µM), for which the “cleaved PARP positive nuclei fraction” value came to 58.2%.

Take `Nc1nc(F)nc2c1ncn2[C@@H]1O[C@H](CO)[C@@H](O)[C@@H]1O` [fludarabine] + O=C(Nc1cccc(Cl)c1)Nc1ncc(CCNc2ncnc3ccsc23)s1 [SNS314] (first compound 0.2 µM, partner dose 0.0008 µM): the “cleaved PARP positive nuclei fraction” value was 90.3%.

In the case of `CS(=O)(=O)CCNCc1ccc(-c2ccc3ncnc(Nc4ccc(OCc5cccc(F)c5)c(Cl)c4)c3c2)o1` [lapatinib] + CN(NC(=O)CC(=O)NN(C)C(=S)c1ccccc1)C(=S)c1ccccc1 [STA4783] (first compound 0.8 µM, partner dose 0.006 µM), the “cleaved PARP positive nuclei fraction” value turned out to be 179%.

Turning to `CC(C)C[C@H](NC(=O)[C@H](Cc1ccccc1)NC(=O)c1cnccn1)B(O)O` [Bortezomib] + CO[C@@H]1[C@H](N(C)C(=O)c2ccccc2)C[C@H]2O[C@]1(C)n1c3ccccc3c3c4c(c5c6ccccc6n2c5c31)C(=O)NC4 [Midostaurin] (first compound 0.001 µM, partner dose 0.08 µM), the “cleaved PARP positive nuclei fraction” value is 1090%.

Regarding `C[C@@H](Oc1cc(-c2cnn(C3CCNCC3)c2)cnc1N)c1c(Cl)ccc(F)c1Cl` [Crizotinib] + O=C(O)c1ccc(-c2c[nH]c3ncc(-c4ccccc4)cc23)cc1C1CCCC1 [GSK650394] (first compound 0.2 µM, partner dose 0.16 µM), the “cleaved PARP positive nuclei fraction” value is 108%.

For the compound `CS(=O)(=O)CCNCc1ccc(-c2ccc3ncnc(Nc4ccc(OCc5cccc(F)c5)c(Cl)c4)c3c2)o1` [lapatinib] + NC(=O)Nc1cc(-c2cccc(F)c2)sc1C(=O)N[C@H]1CCCNC1 [AZD7762] (first compound 0.8 µM, partner dose 0.02 µM), the “cleaved PARP positive nuclei fraction” value stood at 168%.

For the compound `CNC(=O)c1cc(Oc2ccc(NC(=O)Nc3ccc(Cl)c(C(F)(F)F)c3)cc2)ccn1` [sorafenib] + NC(=O)Nc1cc(-c2cccc(F)c2)sc1C(=O)N[C@H]1CCCNC1 [AZD7762] (first compound 0.4 µM, partner dose 0.02 µM), the “cleaved PARP positive nuclei fraction” value turned out to be 56.7%.

`CN1CCN(c2ccc3nc(-c4c(N)c5c(F)cccc5[nH]c4=O)[nH]c3c2)CC1` [Dovitinib] + NCC(=O)Nc1ccc(-n2nc(C(F)(F)F)cc2-c2ccc3c(ccc4ccccc43)c2)cc1 [OSU03012] (first compound 0.1 µM, partner dose 1 µM): the “cleaved PARP positive nuclei fraction” value came to 97.6%.

Regarding `C=C(c1ccc(C(=O)O)cc1)c1cc2c(cc1C)C(C)(C)CCC2(C)C` [Bexarotene] + NC(=O)Nc1cc(-c2cccc(F)c2)sc1C(=O)N[C@H]1CCCNC1 [AZD7762] (first compound 2 µM, partner dose 0.02 µM), the “cleaved PARP positive nuclei fraction” value was 66.3%.

For `Cn1c(=O)n(-c2ccc(C(C)(C)C#N)cc2)c2c3cc(-c4cnc5ccccc5c4)ccc3ncc21` + Cn1cncc1[C@@](N)(c1ccc(Cl)cc1)c1ccc2c(c1)c(-c1cccc(Cl)c1)cc(=O)n2C [tipifarnib] (first compound 0.004 µM, partner dose 0.01 µM), the “cleaved PARP positive nuclei fraction” value amounted to 116%.

As for `C[C@@H](Oc1cc(-c2cnn(C3CCNCC3)c2)cnc1N)c1c(Cl)ccc(F)c1Cl` [Crizotinib] + CN(NC(=O)CC(=O)NN(C)C(=S)c1ccccc1)C(=S)c1ccccc1 [STA4783] (first compound 0.2 µM, partner dose 0.006 µM), the “cleaved PARP positive nuclei fraction” value is 167%.

For the compound `CC(C)C[C@H](NC(=O)[C@H](Cc1ccccc1)NC(=O)c1cnccn1)B(O)O` [Bortezomib] + COc1cc2c(Oc3ccc4[nH]c(C)cc4c3F)ncnc2cc1OCCCN1CCCC1 [cediranib] (first compound 0.001 µM, partner dose 0.4 µM), the “cleaved PARP positive nuclei fraction” value stood at 1600%.

For the compound `Cc1cc(Nc2cc(N3CCN(C)CC3)nc(/C=C/c3ccccc3)n2)n[nH]1` + Cc1cc(N2CCOCC2)cc2[nH]c(-c3c(NC[C@@H](O)c4cccc(Cl)c4)cc[nH]c3=O)nc12 [BMS536924] (first compound 0.04 µM, partner dose 0.2 µM), the “cleaved PARP positive nuclei fraction” value is 173%.

As for `C[C@@H](Oc1cc(-c2cnn(C3CCNCC3)c2)cnc1N)c1c(Cl)ccc(F)c1Cl` [Crizotinib] + CC1(C)NC(=O)N(c2ccc([N+](=O)[O-])c(C(F)(F)F)c2)C1=O [nilutamide] (first compound 0.2 µM, partner dose 1 µM), the “cleaved PARP positive nuclei fraction” value came to 97.3%.

As to `Cn1c(=O)n(-c2ccc(C(C)(C)C#N)cc2)c2c3cc(-c4cnc5ccccc5c4)ccc3ncc21` + NC(=O)Nc1cc(-c2cccc(F)c2)sc1C(=O)N[C@H]1CCCNC1 [AZD7762] (first compound 0.004 µM, partner dose 0.02 µM), the “cleaved PARP positive nuclei fraction” value worked out at 84.3%.

`CC(C)C[C@H](NC(=O)[C@H](Cc1ccccc1)NC(=O)c1cnccn1)B(O)O` [Bortezomib] + O=C(O)c1ccc(-c2c[nH]c3ncc(-c4ccccc4)cc23)cc1C1CCCC1 [GSK650394] (first compound 0.001 µM, partner dose 0.16 µM): the “cleaved PARP positive nuclei fraction” value is 2900%.

Consider `C[C@@H](Oc1cc(-c2cnn(C3CCNCC3)c2)cnc1N)c1c(Cl)ccc(F)c1Cl` [Crizotinib] + C[C@@H]1CCN(C(=O)CC#N)C[C@@H]1N(C)c1ncnc2[nH]ccc12 [CP690550] (first compound 0.2 µM, partner dose 1 µM), for which the “cleaved PARP positive nuclei fraction” value was 170%.

Turning to `CC(C)C[C@H](NC(=O)[C@H](Cc1ccccc1)NC(=O)c1cnccn1)B(O)O` [Bortezomib] + Cc1cc(N2CCOCC2)cc2[nH]c(-c3c(NC[C@@H](O)c4cccc(Cl)c4)cc[nH]c3=O)nc12 [BMS536924] (first compound 0.001 µM, partner dose 0.2 µM), the “cleaved PARP positive nuclei fraction” value was 1350%.

Regarding `Nc1ccn([C@@H]2O[C@H](CO)[C@@H](O)C2(F)F)c(=O)n1` [gemcitabine] + CC(C)(C)c1cnc(CSc2cnc(NC(=O)C3CCNCC3)s2)o1 [SNS-032] (first compound 0.0004 µM, partner dose 0.01 µM), the “cleaved PARP positive nuclei fraction” value is 166%.

Consider `CCCS(=O)(=O)Nc1ccc(F)c(C(=O)c2c[nH]c3ncc(Cl)cc23)c1F` + C=CCn1c(=O)c2cnc(Nc3ccc(N4CCN(C)CC4)cc3)nc2n1-c1cccc(C(C)(C)O)n1 [MK1775] (first compound 0.08 µM, partner dose 0.02 µM), for which the “cleaved PARP positive nuclei fraction” value stood at 103%.

As for `Nc1ccn([C@@H]2O[C@H](CO)[C@@H](O)C2(F)F)c(=O)n1` [gemcitabine] + CC1(C)NC(=O)N(c2ccc([N+](=O)[O-])c(C(F)(F)F)c2)C1=O [nilutamide] (first compound 0.0004 µM, partner dose 1 µM), the “cleaved PARP positive nuclei fraction” value amounted to 108%.
